Experimental data: PubChem BioAssay AID504793 (Drosophila RNAi Screening Center, 2011)

Test: 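Genes required for cells to halt at G2/M after double-strand DNA breaks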 (primary screen)
System: Drosophila S2R+ cells
Knock-down reagent: long dsRNA against Drosophila genes, about 0.25 µg dsRNA per well
Timing: 4 days of dsRNA, then 4 hours of drug before read-out
Challenge: doxorubicin 0.5 µM for 4 hours to cause double-strand breaks, in cells also given a low, harmless dose of dsRNA against nbs to sensitise the assay
Measured: 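Mitotic index as the number of phospho-histone H3-positive cells in each well following doxorubicin, given as raw counts without normalisation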
Reading the numbers: mitotic cells: higher = more cells in mitosis, weaker G2 arrest
Rule for the call: 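Genes are called active only when high mitotic counts were reproduced with independent dsRNAs and mitosis was checked for delay without damage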
Meaning of the calls: active = confirmed in follow-up tests; inactive = not confirmed
The screen tested about 23,000 reagents; this is an unselected part of those that have a named target and a result. Over the whole deposit, 62 (0.27%) were called active. 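Calls come from follow-up tests whose scores are not deposited, so confirmed genes may have low counts here; counts are not normalised per plate.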 Raw values vary from plate to plate and are shown uncorrected. A plus sign joins genes that one reagent is predicted to hit.

The opening 2 records as a preview:
| target | PubChem SID | mitotic cells, replicate 1 | Call |
| --- | --- | --- | --- |
| by | SID104196274 | 3 | inactive |
| by | SID104207188 | 7 | inactive |

The listing, repeating the preview:
| target | PubChem SID | mitotic cells, replicate 1 | Call |
| --- | --- | --- | --- |
| by | SID104196274 | 3 | inactive |
| by | SID104207188 | 7 | inactive |
| Xport-A + Xport-B | SID104195378 | 12 | inactive |
| Mlc1 | SID104196532 | 24 | inactive |
| Mlc1 | SID104205776 | 11 | inactive |
| noc | SID104203543 | 10 | inactive |
| BHD | SID104190809 | 9 | inactive |
| BHD | SID104202192 | 9 | inactive |
| BHD | SID104206013 | 10 | inactive |
| CG32119 | SID104189040 | 7 | inactive |
| CG32119 | SID104201200 | 10 | inactive |
| CG32119 | SID104207666 | 3 | inactive |
| CG31126 | SID104194415 | 17 | inactive |
| CG15638 | SID104181667 | 3 | inactive |
| HDAC3 | SID104192144 | 12 | inactive |
| dar1 | SID104188025 | 3 | inactive |
| Slob (retired record) | SID104183228 | 7 | inactive |
| CG9395 | SID104183010 | 4 | inactive |
| CG9395 | SID104205120 | 10 | inactive |
| CG8135 + BBIP1 | SID104192531 | 6 | inactive |
| CG8135 + BBIP1 | SID104196176 | 4 | inactive |
| CG8135 + BBIP1 | SID104204596 | 2 | inactive |
| b6 | SID104198532 | 8 | inactive |
| b6 | SID104203013 | 4 | inactive |
| Cad86C | SID104195379 | 7 | inactive |
| Cad86C | SID104195403 | 12 | inactive |
| Cad86C | SID104206146 | 3 | inactive |
| Cad86C | SID104206638 | 11 | inactive |
| spz3 | SID104182183 | 1 | inactive |
| spz3 | SID104182800 | 3 | inactive |
| rin | SID104202354 | 16 | inactive |
| CG6753 | SID104195900 | 6 | inactive |
| CG6753 | SID104206993 | 6 | inactive |
| Rh4 | SID104191060 | 8 | inactive |
| Rh4 | SID104205925 | 6 | inactive |
| Desat1 | SID104196460 | 3 | inactive |
| Desat1 | SID104202803 | 6 | inactive |
| dachs | SID104181864 | 5 | inactive |
| dachs | SID104181983 | 1 | inactive |
| dachs | SID104204665 | 3 | inactive |
| dachs | SID104206947 | 4 | inactive |
| gammaTub23C | SID104180612 | 24 | inactive |
| gammaTub23C | SID104206195 | 5 | inactive |
| Drip | SID104187197 | 4 | inactive |
| Sbp2 | SID104190558 | – | inactive |
| CG15387 | SID104180193 | 5 | inactive |
| Npl4 | SID104195407 | 18 | inactive |
| Npl4 | SID104195408 | 30 | inactive |
| Synj | SID104184318 | 4 | inactive |
| CG9932 | SID104183067 | 6 | inactive |
| Snx3 | SID104195819 | 6 | inactive |
| Snx3 | SID104207295 | 6 | inactive |
| CG17300 | SID104190052 | 5 | inactive |
| CG17300 | SID104207448 | 5 | inactive |
| CG5969 | SID104191581 | 1 | inactive |
| CG5969 | SID104207574 | 4 | inactive |
| p38b | SID104183378 | 4 | inactive |
| Cpr30F | SID104182700 | 8 | inactive |
| Cpr30F | SID104204076 | 10 | inactive |
| Or65c | SID104201100 | 8 | inactive |
| Rae1 | SID104184369 | 5 | inactive |
| CG10418 | SID104189512 | 5 | inactive |
| pnut | SID104187458 | 4 | inactive |
| pnut | SID104202968 | 8 | inactive |
| CG11147 | SID104181921 | 6 | inactive |
| CG12343 | SID104185927 | 13 | inactive |
| CG15386 + CG42371 | SID104180192 | 6 | inactive |
| CG15386 + CG42371 | SID104208621 | 3 | inactive |
| CG31735 | SID104181310 | 8 | inactive |
| CG31735 | SID104208616 | 2 | inactive |
| Ir7g | SID104197800 | 9 | inactive |
| Ir7g | SID104207466 | 9 | inactive |
| CG30269 | SID104183950 | 3 | inactive |
| Exo84 | SID104195757 | 6 | inactive |
| Muc68D | SID104190361 | 5 | inactive |
| eIF4G1 | SID104197010 | 18 | active |
| eIF4G1 | SID104208330 | 16 | inactive |
| CG34460 | SID104186766 | 5 | inactive |
| Atac3 | SID104188371 | 2 | inactive |
| CG5167 | SID104195520 | 3 | inactive |
| caps | SID104191125 | 3 | inactive |
| caps | SID104201755 | 13 | inactive |
| CG5026 | SID104190262 | 7 | inactive |
| Octalpha2R | SID104193111 | 4 | inactive |
| Octalpha2R | SID104195106 | 6 | inactive |
| Cyp6a20 | SID104187172 | 7 | inactive |
| CG6454 | SID104195836 | 2 | inactive |
| CG6454 | SID104203295 | 2 | inactive |
| CG5126 | SID104180472 | 7 | inactive |
| ftz-f1 | SID104203561 | 2 | inactive |
| ftz-f1 | SID104215128 | 6 | inactive |
| PIP5K59B | SID104184082 | 8 | inactive |
| PIP5K59B | SID104184195 | 6 | inactive |
| CG7131 | SID104195995 | 4 | inactive |
| CG7131 | SID104208424 | 8 | inactive |
| NAAT1 | SID104198092 | 9 | inactive |
| NAAT1 | SID104204159 | 7 | inactive |
| l(2)k05819 | SID104180618 | 4 | inactive |
| Prosbeta5R2 | SID104181409 | 3 | inactive |
| Prosbeta5R2 | SID104208311 | 15 | inactive |
| CG13675 | SID104202481 | 8 | inactive |
| Pal1 + Pdrg1 | SID104186379 | 7 | inactive |
| mtTFB2 | SID104195311 | 1 | inactive |
| Tbp | SID104202468 | 5 | inactive |
| Reg-5 | SID104184439 | 6 | inactive |
| Kua | SID104181892 | 1 | inactive |
| Kank | SID104185305 | 9 | inactive |
| Kank | SID104185725 | 8 | inactive |
| CG5089 | SID104186706 | 3 | inactive |
| CG5089 | SID104208633 | 4 | inactive |
